Assay results published in patent publication US20090321255A1, “Drug-meter: Multiwell membrane-based potentiometric sensor for high throughput tests of drugs” (priority 2008, published 2009).
Structures can show the parent of a compound that is named as a salt.

Experiment: Transmembrane potential calibration of multiwell biomimetic membrane sensor in buffer
Format: physicochemical
Text: Multiwell plates used were commercial Millipore MultiScreen VM 0.05μ plates with nitrocellulose ultrafilters located at the base of each of the 96 wells of a plate. Though the number of the wells in the examples given in the disclosure is 96, as it is in the usual multiwell plates, it is not limited by this number and can be any from 2 and above.
All filters were impregnated by isopropyl myristate or some other lipid-like substances, like long chain fatty acids, their methyl and ethyl-esters, fats, etc. After impregnation the membranes should be translucent.
Each well requires as little as 200 μl of test solution. The small well's volume and the numerous wells (96) make the plates highly suitable as a part of the drug sensor, both for pharmaceutical testing in a buffer as well as for testing in biological fluids.
The tray cover can be is used as a base tray to put the reference buffer solution. Two Ag/AgCl electrodes with the salt bridges were used to measure transmembrane potential with common multimeter. It is possible to use one Ag/AgCl element as a measuring electrode and move it from one well to another. Another option is to have different measuring electrodes in different wells and separately to collect signals from each of them separately.
Kinetics of the process was registered with electrochemical station GPES. 5 mM Potassium Dihydrogen Phosphate solution in water was used as a buffer, filling the tray with the volume ˜30 ml. Known concentration of a drug (usually near 10^−5 M) could be added in the buffer as the reference. Membrane resistance after impregnation was several megaohms and usually decreases after modification of the membrane with drugs. Resistance is much lower when the membrane is broken. In this case the measurements can be conducted in other wells with the same test solution.

| Structure (SMILES) | slope of calibration curve (buffer pH 4) [mV] | slope of calibration curve (buffer pH 7.4) [mV] | slope of calibration curve (buffer pH 8) [mV per decade] | slope of transmembrane potential versus Log (concentration) (buffer, concentrations higher than 10^−4 M) |
| --- | --- | --- | --- | --- |
| CCNC(C)Cc1cccc(C(F)(F)F)c1.Cl (racemic) [Fenfluramine Hydrochloride, (+/−)-N-ethyl-α-methyl-m-(trifluoromethyl) phenethylamine HCl] | 36.1 | 48.9 | 56.4 | – |
| CC(C)NCC(O)COc1cccc2ccccc12 (stereo not shown) [Propranolol Hydrochloride] | – | – | – | ~58 mV per ten times concentration changes |
